Values from PubChem BioAssay AID1508597 (Cure First, 2020)

Purpose: 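Survival screen with siRNA in ovarian cancer cells derived from patients, with or without rucaparib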 (primary screen)
Cell system: human ovarian carcinoma lines grown from tumours: OCI-P5x (papillary serous) and OCI-C5x (clear cell)
Reagents: siRNA pool against human genes, 1.25 pmol siRNA per well
Duration: 72 h or 96 h, depending on the cell culture
Challenge: rucaparib 20 µM (about IC30) or vehicle, present until read-out
Rucaparib or vehicle: Rucaparib
Cell line: OCI-C5x (clear cell)
Measured: 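ATP luminescence measured at 72 or 96 h according to the culture, then normalised and expressed as percent viability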
Reading the numbers: viability, normalised: higher = more viable cells remaining
Rule for the call: 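Active when normalised viability falls below 80 percent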
Meaning of the calls: active = viability under 80%; inactive = viability 80% or more
Shown is a random part of the about 2,100 reagents, in one setting of the screen. 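Calls flag viability under 80% in either arm, not effects specific to rucaparib; the reference for percent is not stated.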 A number with no mark means an inactive call. Not stated in the record: the 100% reference.

With PMS2P3, technical replicate 1, what does the deposit list?
viability, normalised (%): 55.5 (active)

What is on record for PMS2P3, technical replicate 2?
viability, normalised (%): 56.6 (active)

For PMS2P3, technical replicate 3, what does the deposit list?
viability, normalised (%): 46.8 (active)

Which result is listed for CHD2 (chromodomain helicase DNA binding protein 2), technical replicate 1?
viability, normalised (%): 67.6 (active)

Which result is listed for CHD2 (chromodomain helicase DNA binding protein 2), technical replicate 2?
viability, normalised (%): 52.1 (active)

For CHD2 (chromodomain helicase DNA binding protein 2), technical replicate 3, what does the deposit list?
viability, normalised (%): 59.4 (active)

Which result is listed for BRSK1 (BR serine/threonine kinase 1), technical replicate 1?
viability, normalised (%): 50.2 (active)

What is on record for BRSK1 (BR serine/threonine kinase 1), technical replicate 2?
viability, normalised (%): 48.4 (active)

What is on record for BRSK1 (BR serine/threonine kinase 1), technical replicate 3?
viability, normalised (%): 53.4 (active)

A few values from the list:
Value of BRSK1 (BR serine/threonine kinase 1), technical replicate 2 in “viability, normalised (%)”: 48.4 (active)
For “viability, normalised (%)”, PMS2P3, technical replicate 3 has 46.8 (active)

The results go on.
For KMT5A (lysine methyltransferase 5A), technical replicate 1, how do the results read?
viability, normalised (%): 27.9 (active)

For KMT5A (lysine methyltransferase 5A), technical replicate 2, how do the results read?
viability, normalised (%): 21.5 (active)

With KMT5A (lysine methyltransferase 5A), technical replicate 3, how do the results read?
viability, normalised (%): 21.1 (active)

For ZNF623 (zinc finger protein 623), technical replicate 1, what was measured?
viability, normalised (%): 63.5 (active)

For ZNF623 (zinc finger protein 623), technical replicate 2, what was measured?
viability, normalised (%): 65.2 (active)

What is on record for ZNF623 (zinc finger protein 623), technical replicate 3?
viability, normalised (%): 59.5 (active)

What is on record for AMELX (amelogenin X-linked), technical replicate 1?
viability, normalised (%): 40.5 (active)

With AMELX (amelogenin X-linked), technical replicate 2, what does the deposit list?
viability, normalised (%): 43.8 (active)

What is on record for AMELX (amelogenin X-linked), technical replicate 3?
viability, normalised (%): 43.2 (active)

What is on record for TF (transferrin), technical replicate 1?
viability, normalised (%): 83.7

With TF (transferrin), technical replicate 2, what does the deposit list?
viability, normalised (%): 84.6

What did the screen give for TF (transferrin), technical replicate 3?
viability, normalised (%): 82.9
